Among the data in article PMC8257531 are binding values, retold here.

The experiment has as its target T1, ARL15^A86L (BioID bait) (UniProt Q9NXU5).
T1 sequence: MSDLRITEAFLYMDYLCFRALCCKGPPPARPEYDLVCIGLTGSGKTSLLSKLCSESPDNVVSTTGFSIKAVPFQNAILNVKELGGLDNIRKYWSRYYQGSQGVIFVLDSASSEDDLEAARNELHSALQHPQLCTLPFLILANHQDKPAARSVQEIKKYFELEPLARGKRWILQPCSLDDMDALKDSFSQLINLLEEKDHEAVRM
Put plainly: proximity labelling; BioID; cleared lysates of ARL15^A86L expressing Flp-In T-REx HeLa cells on streptavidin beads, on-bead trypsin digestion, mass spectrometry; SAINT AvgP >= 0.95.

Results are given in words; binding and its absence hold for the method and conditions named. In cells and extracts the contact can be indirect. Here binding means that the protein was enriched with, or labelled near, the bait; the list need not be complete.

B1: Golgi SNAP receptor complex member 1 (GOSR1) (protein, UniProt O95249 1-250)
chain: MAAGTSSYWEDLRKQARQLENELDLKLVSFSKLCTSYSHSSTRDGRRDRYSSDTTPLLNGSSQDRMFETMAIEIEQLLARLTGVNDKMAEYTNSAGVPSLNAALMHTLQRHRDILQDYTHEFHKTKANFMAIRERENLMGSVRKDIESYKSGSGVNNRRTELFLKEHDHLRNSDRLIEETISIAMATKENMTSQRGMLKSIHSKMNTLANRFPAVNSLIQRINLRKRRDSLILGGVIGICTILLLLYAFH
For the molecule B1, the binding result is “binds”.

B2: GOLGA3 (protein, UniProt Q08378 1-1498)
chain: MDGASAEQDGLQEDRSHSGPSSLPEAPLKPPGPLVPPDQQDKVQCAEVNRASTEGESPDGPGQGGLCQNGPTPPFPDPPSSLDPTTSPVGPDASPGVAGFHDNLRKSQGTSAEGSVRKEALQSLRLSLPMQETQLCSTDSPLPLEKEEQVRLQARKWLEEQLKQYRVKRQQERSSQPATKTRLFSTLDPELMLNPENLPRASTLAMTKEYSFLRTSVPRGPKVGSLGLPAHPREKKTSKSSKIRSLADYRTEDSNAGNSGGNVPAPDSTKGSLKQNRSSAASVVSEISLSPDTDDRLENTSLAGDSVSEVDGNDSDSSSYSSASTRGTYGILSKTVGTQDTPYMVNGQEIPADTLGQFPSIKDVLQAAAAEHQDQGQEVNGEVRSRRDSICSSVSLESSAAETQEEMLQVLKEKMRLEGQLEALSLEASQALKEKAELQAQLAALSTKLQAQVECSHSSQQRQDSLSSEVDTLKQSCWDLERAMTDLQNMLEAKNASLASSNNDLQVAEEQYQRLMAKVEDMQRSMLSKDNTVHDLRQQMTALQSQLQQVQLERTTLTSKLKASQAEISSLQSVRQWYQQQLALAQEARVRLQGEMAHIQVGQMTQAGLLEHLKLENVSLSQQLTETQHRSMKEKGRIAAQLQGIEADMLDQEAAFMQIQEAKTMVEEDLQRRLEEFEGERERLQRMADSAASLEQQLEQVKLTLLQRDQQLEALQQEHLDLMKQLTLTQEALQSREQSLDALQTHYDELQARLGELQGEAASREDTICLLQNEKIILEAALQAAKSGKEELDRGARRLEEGTEETSETLEKLREELAIKSGQVEHLQQETAALKKQMQKIKEQFLQQKVMVEAYRRDATSKDQLISELKATRKRLDSELKELRQELMQVHGEKRTAEAELSRLHREVAQVRQHMADLEGHLQSAQKERDEMETHLQSLQFDKEQMVAVTEANEALKKQIEELQQEARKAITEQKQKMRRLGSDLTSAQKEMKTKHKAYENAVGILSRRLQEALAAKEAADAELGQLRAQGGSSDSSLALHERIQALEAELQAVSHSKTLLEKELQEVIALTSQELEESREKVLELEDELQESRGFRKKIKRLEESNKKLALELEHEKGKLTGLGQSNAALREHNSILETALAKREADLVQLNLQVQAVLQRKEEEDRQMKHLVQALQASLEKEKEKVNSLKEQVAAAKVEAGHNRRHFKAASLELSEVKKELQAKEHLVQKLQAEADDLQIREGKHSQEIAQFQAELAEARAQLQLLQKQLDEQLSKQPVGNQEMENLKWEVDQKEREIQSLKQQLDLTEQQGRKELEGLQQLLQNVKSELEMAQEDLSMTQKDKFMLQAKVSELKNNMKTLLQQNQQLKLDLRRGAAKTRKEPKGEASSSNPATPIKIPDCPVPASLLEELLRPPPAVSKEPLKNLNSCLQQLKQEMDSLQRQMEEHALTVHESLSSWTPLEPATASPVPPGGHAGPRGDPQRHSQSRASKEGPGE
Regarding B2, the binding entry is on record as “binds”.
